For at least one compound, name, drawing or mass did not settle the structure.
Legend:
[1] = tested on: corpus cavernosal smooth muscle cells (CCSM); experiment: cGMP levels in primary CCSM / PVSM; type: cell-based, mouse; settings: CCSM/PVSM of both wild type and A2BR deficient mice, 10 min
Description: Results for wild-type and A2B^−/− mouse were statistically significant, p<0.01.
FIG. 18. Adenosine stimulated both cAMP and cGMP induction in corpus cavernosal smooth muscle cells (CCSM) via A2BR activation. (a) Adenosine receptor expression profile in purified primary CCSM. CCSM were purified from adult mouse penes. […] (b) CCSM were isolated and cultured from mouse penes. The cells were switched to serum-free medium and treated with different concentrations of adenosine with or without A2BR antagonist (MRS1706-10 μM), A2AR antagonist (ZM241385-50 nM) or A2AR agonist (CGS-21680-10 μM) alone for 10 min. Then cellular extracts were collected and cAMP levels were measured using an ELISA kit. […] 10 min after treatment, cellular extracts were collected and cGMP levels were measured by using a commercial enzyme immunoassay kit (Amersham Pharmacia). Data are expressed as mean±SE. *p<0.05, adenosine treated versus the control; **p<0.05, adenosine treated with MRS1706 versus the adenosine treated; ***p<0.05, CCS of A2BR-deficient mice treated with adenosine versus the CCS of wild type mice treated with adenosine. […] The total MLC and phosphorylated MLC at S20 were detected by specific antibodies. […]
Tissue and corpus cavernosum smooth muscle cell (CCSM) cAMP and cGMP measurement. Quantitative assays for cAMP and cGMP were performed by using a commercial enzyme immunoassay kit (Amersham Pharmacia). […]

[2] = tested on: corpus cavernosal smooth muscle cells (CCSM); experiment: cAMP production in primary corpus cavernosal / penile vascular smooth muscle cells (CCSM, PVSM); type: cell-based, mouse; settings: 10 min
Protocol: PVSM were isolated and cultured from mouse penes. The cells were be switched to serum-free medium and treated with different concentrations of adenosine with or without A2B antagonist (MRS1706-1 μM) or A2A agonist (CGS-21680-1 μM) alone for 10 min. Then cellular extracts were collected and cAMP levels were measured using an ELISA kit. The data represent mean±SE.
Data are presented as mean±SE. *, p<0.01.
FIG. 18. Adenosine stimulated both cAMP and cGMP induction in corpus cavernosal smooth muscle cells (CCSM) via A2BR activation. (a) Adenosine receptor expression profile in purified primary CCSM. CCSM were purified from adult mouse penes. […] (b) CCSM were isolated and cultured from mouse penes. The cells were switched to serum-free medium and treated with different concentrations of adenosine with or without A2BR antagonist (MRS1706-10 μM), A2AR antagonist (ZM241385-50 nM) or A2AR agonist (CGS-21680-10 μM) alone for 10 min. Then cellular extracts were collected and cAMP levels were measured using an ELISA kit. The data represent mean±SE. *p<0.05, adenosine treated versus the untreated; **p<0.05, adenosine plus MRS1706 or ZM241385 versus the adenosine treated. (c) CCSM were isolated from penes of the wild type and A2BR-deficient mice and cultured with or without adenosine (100 μM), NECA (10 μM), a potent adenosine receptor agonist, forskolin (10 μM), an adenylyl cyclase agonist. After 10 min treatment, the cellular extracts were collected and cAMP levels were measured by using a commercial enzyme immunoassay kit (Amersham Pharmacia). N=4. *p<0.05, adenosine, forskolin and NECA treated versus the untreated control. (d) Corpus cavernosal strips (CCS) were isolated from wild type and A2BR-deficient mice and treated with different concentrations of adenosine in the presence or absence of L-NAME (100 μM) or MRS1706 (10 μM). 10 min after treatment, cellular extracts were collected and cGMP levels were measured by using a commercial enzyme immunoassay kit (Amersham Pharmacia). Data are expressed as mean±SE. *p<0.05, adenosine treated versus the control; **p<0.05, adenosine treated with MRS1706 versus the adenosine treated; ***p<0.05, CCS of A2BR-deficient mice treated with adenosine versus the CCS of wild type mice treated with adenosine. N=6-7. (e) CCSM were isolated from wild type and A2BR deficient mice and cultured with or without adenosine (100 μM), NECA (10 μM), a potent adenosine receptor agonist, forskolin (10 μM), an adenylyl cyclase agonist, or diethylamine-NONOate (DEA/NO) (10 μM). After 10 min treatment, the cellular extracts were collected and cAMP levels were measured by using a commercial enzyme immunoassay kit (Amersham Pharmacia). […] The total MLC and phosphorylated MLC at S20 were detected by specific antibodies. […]

Q: Which results are given for `C=C[C@@]1(C)CC(=O)[C@]2(O)[C@@]3(C)[C@@H](O)CCC(C)(C)[C@@H]3[C@H](O)[C@H](OC(C)=O)[C@@]2(C)O1` [forskolin]?
A: cGMP levels [1]: lack of significant differences in cGMP production; cGMP levels ([1]; listed as forskoline): had no effect; cAMP production ([2]; CCSM/PVSM of A2BR deficient (A2B-/-) mice): high and comparable levels of cAMP; cAMP production ([2]; CCSM/PVSM of A2BR deficient (A2B-/-) mice, listed as forskoline): capable of inducing cAMP production; cAMP production ([2]; wild type CCSM/PVSM, agent alone): high and comparable levels of cAMP; cAMP production ([2]; wild type CCSM/PVSM, agent alone, listed as forskoline): capable of inducing cAMP production
